# Experimental data published in the supplement of paper PMC8728848.
# The other results are listed elsewhere or left out.
# B1: Mnn9-2N3 (Aspergillus fumigatus) (protein)
# chain: MAVARRMRRTNPITLLLAAILAIGFFIFVLSPSTTSASPVKAGSASSSSTSQQRREDNAAENPLSPPTKPFFKSQPVRHDGQQAPPPVVQYNLNQLSSTSTSAANGERILILTPMARFVPEYWDNVVKLTYPHELISIGFIIPKNKEGNAALAALEAAIAKTQSGPIDKRFASISILRQDFEPPLQSQDEKERHKISNQKARRESMSRARNSLLFTTLGPATAWVLWLDADIVETPPTLIQDLTAHDHPVLVPNCYQRYYNSEKKKMDVRPYDYNSWIDSSTAQSMAAEMGPDEILLEGYAEMPTYRTLMAHLADTANPNPKKVIELDGVGGTALMVKAEVHRDGAMFPAFPFYHLVETEGFAKMAKRLGYSVYGLPDYFVSRNFFFFFFFFFFG
# Legend:
# Test in all cases: glycan array binding signal (z-score within array); higher = stronger binding
# Conditions in all cases: glycan notation: IUPAC condensed, linker removed
# [1] = target: Fuc(a1-3)[Gal3S(b1-4)]GlcNAc6S
# In short: (§1)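 Glycan array data were curated from 3228 arrays in the Consortium for Functional Glycomics database and kept only where the protein sequence was available. Glycan names were converted to IUPAC-condensed notation, and columns mapping to the same glycan were averaged. The binding signal is a within-array Z-score, averaged across arrays of the same protein sequence at different concentrations or buffers and across linkers. Negative Z-scores can be read as non-binding.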
# [2] = target: Fuc(a1-3)[GalNAc(b1-4)]GlcNAc
# In short: as §1
# [3] = target: Fuc(a1-3)[GalNAc(b1-4)]GlcNAc6S
# In short: as §1
# Fuc(a1-4)GlcNAc = target: Fuc(a1-4)GlcNAc
# In short: as §1
# Fuc(b1-3)GlcNAc = target: Fuc(b1-3)GlcNAc
# In short: as §1
# Gal(a1-2)Gal = target: Gal(a1-2)Gal
# In short: as §1
# Gal(a1-3)Gal = target: Gal(a1-3)Gal
# In short: as §1
# Gal(a1-3)Gal(b1-3)GlcNAc = target: Gal(a1-3)Gal(b1-3)GlcNAc
# In short: as §1
# [4] = target: Gal(a1-3)Gal(b1-3)GlcNAc(b1-2)Man
# In short: as §1
# [5] = target: Gal(a1-3)Gal(b1-3)GlcNAc(b1-2)Man(a1-3)[Gal(a1-3)Gal(b1-3)GlcNAc(b1-2)Man(a1-6)]Man(b1-4)GlcNAc(b1-4)GlcNAc
# In short: as §1
# [6] = target: Gal(a1-3)Gal(b1-3)GlcNAc(b1-3)GalNAc
# In short: as §1
# [7] = target: Gal(a1-3)Gal(b1-3)GlcNAc(b1-6)GalNAc
# In short: as §1
# [8] = target: Gal(a1-3)Gal(b1-3)[Fuc(a1-4)]GlcNAc(b1-2)Man(a1-3)[Gal(a1-3)Gal(b1-3)[Fuc(a1-4)]GlcNAc(b1-2)Man(a1-6)]Man(b1-4)GlcNAc(b1-4)GlcNAc
# In short: as §1
# Gal(a1-3)Gal(b1-4)Glc = target: Gal(a1-3)Gal(b1-4)Glc
# In short: as §1
# Gal(a1-3)Gal(b1-4)GlcNAc = target: Gal(a1-3)Gal(b1-4)GlcNAc
# In short: as §1
# [9] = target: Gal(a1-3)Gal(b1-4)GlcNAc(b1-2)Man
# In short: as §1
# [10] = target: Gal(a1-3)Gal(b1-4)GlcNAc(b1-2)Man(a1-3)[Gal(a1-3)Gal(b1-4)GlcNAc(b1-2)Man(a1-6)]Man(b1-4)GlcNAc(b1-4)GlcNAc
# In short: as §1
# [11] = target: Gal(a1-3)Gal(b1-4)GlcNAc(b1-3)GalNAc
# In short: as §1
# [12] = target: Gal(a1-3)Gal(b1-4)GlcNAc(b1-6)GalNAc
# In short: as §1
# [13] = target: Gal(a1-3)Gal(b1-4)[Fuc(a1-3)]GlcNAc
# In short: as §1
# [14] = target: Gal(a1-3)Gal(b1-4)[Fuc(a1-3)]GlcNAc(b1-2)Man(a1-3)[Gal(a1-3)Gal(b1-4)[Fuc(a1-3)]GlcNAc(b1-2)Man(a1-6)]Man(b1-4)GlcNAc(b1-4)GlcNAc
# In short: as §1
# Gal(a1-3)GalNAc = target: Gal(a1-3)GalNAc
# In short: as §1
# [15] = target: Gal(a1-3)[Gal(a1-4)]Gal(b1-4)GlcNAc
# In short: as §1
# [16] = target: Gal(a1-4)Gal(b1-3)GlcNAc(b1-2)Man(a1-3)[Gal(a1-4)Gal(b1-3)GlcNAc(b1-2)Man(a1-6)]Man(b1-4)GlcNAc(b1-4)GlcNAc
# In short: as §1
# Gal(a1-4)Gal(b1-4)Glc = target: Gal(a1-4)Gal(b1-4)Glc
# In short: as §1
# Gal(a1-4)Gal(b1-4)GlcNAc = target: Gal(a1-4)Gal(b1-4)GlcNAc
# In short: as §1
# [17] = target: Gal(a1-4)Gal(b1-4)GlcNAc(b1-2)Man(a1-3)[Gal(a1-4)Gal(b1-4)GlcNAc(b1-2)Man(a1-6)]Man(b1-4)GlcNAc(b1-4)GlcNAc
# In short: as §1
# [18] = target: Gal(a1-4)Gal(b1-4)GlcNAc(b1-3)Gal(b1-4)Glc
# In short: as §1
# Gal(a1-4)GlcNAc = target: Gal(a1-4)GlcNAc
# In short: as §1
# Gal(a1-6)Glc = target: Gal(a1-6)Glc
# In short: as §1
# Gal(b1-2)Gal = target: Gal(b1-2)Gal
# In short: as §1
# Gal(b1-3)Gal = target: Gal(b1-3)Gal
# In short: as §1
# Gal(b1-3)Gal(b1-4)GlcNAc = target: Gal(b1-3)Gal(b1-4)GlcNAc
# In short: as §1
# Gal(b1-3)GalNAc = target: Gal(b1-3)GalNAc
# In short: as §1
# [19] = target: Gal(b1-3)GalNAc(a1-3)[Fuc(a1-2)]Gal(b1-4)Glc
# In short: as §1
# [20] = target: Gal(b1-3)GalNAc(a1-3)[Fuc(a1-2)]Gal(b1-4)GlcNAc
# In short: as §1
# Gal(b1-3)GalNAc(b1-3)Gal = target: Gal(b1-3)GalNAc(b1-3)Gal
# In short: as §1
binder,measurement,setting,value
B1,glycan array binding signal (z-score),[1],3.29
same,glycan array binding signal (z-score),[2],-0.066
same,glycan array binding signal (z-score),[3],-0.303
same,glycan array binding signal (z-score),Fuc(a1-4)GlcNAc,-0.368
same,glycan array binding signal (z-score),Fuc(b1-3)GlcNAc,-0.266
same,glycan array binding signal (z-score),Gal(a1-2)Gal,3.25
same,glycan array binding signal (z-score),Gal(a1-3)Gal,-0.434
same,glycan array binding signal (z-score),Gal(a1-3)Gal(b1-3)GlcNAc,0.098
same,glycan array binding signal (z-score),[4],0.145
same,glycan array binding signal (z-score),[5],-0.003
same,glycan array binding signal (z-score),[6],-0.015
same,glycan array binding signal (z-score),[7],-0.452
same,glycan array binding signal (z-score),[8],-0.435
same,glycan array binding signal (z-score),Gal(a1-3)Gal(b1-4)Glc,-1.47
same,glycan array binding signal (z-score),Gal(a1-3)Gal(b1-4)GlcNAc,-0.258
same,glycan array binding signal (z-score),[9],0.956
same,glycan array binding signal (z-score),[10],0.22
same,glycan array binding signal (z-score),[11],-0.252
same,glycan array binding signal (z-score),[12],1.17
same,glycan array binding signal (z-score),[13],0.295
same,glycan array binding signal (z-score),[14],2.41
same,glycan array binding signal (z-score),Gal(a1-3)GalNAc,1.16
same,glycan array binding signal (z-score),[15],-0.015
same,glycan array binding signal (z-score),[16],-0.626
same,glycan array binding signal (z-score),Gal(a1-4)Gal(b1-4)Glc,-0.443
same,glycan array binding signal (z-score),Gal(a1-4)Gal(b1-4)GlcNAc,-0.114
same,glycan array binding signal (z-score),[17],0.199
same,glycan array binding signal (z-score),[18],-2.17
same,glycan array binding signal (z-score),Gal(a1-4)GlcNAc,2.75
same,glycan array binding signal (z-score),Gal(a1-6)Glc,2.31
same,glycan array binding signal (z-score),Gal(b1-2)Gal,1.83
same,glycan array binding signal (z-score),Gal(b1-3)Gal,2.22
same,glycan array binding signal (z-score),Gal(b1-3)Gal(b1-4)GlcNAc,-0.267
same,glycan array binding signal (z-score),Gal(b1-3)GalNAc,-0.491
same,glycan array binding signal (z-score),[19],-0.308
same,glycan array binding signal (z-score),[20],-0.28
same,glycan array binding signal (z-score),Gal(b1-3)GalNAc(b1-3)Gal,-0.049

# Three entries from above in a different format.
binder	measurement	setting	value
B1	glycan array binding signal (z-score)	[7]	-0.452
same	glycan array binding signal (z-score)	[16]	-0.626
same	glycan array binding signal (z-score)	Gal(a1-4)GlcNAc	2.75
